US20250297019A1
No constants are given. Whether binding was seen depends on the method and setting. Some results given as binding are weak or reduced against the parent protein; the word gives no strength. For some assays here: Where a sequence is shown, tags or fusion partners need not be part of it. One block for each binder: values may come before it.

Chains of the proteins cited; added tags and fusions are not shown. Lines headed by an entry give the natural chain unless they say otherwise; changes in a name come on top. A line that says so, or that is headed by a name, gives the form on record, which may keep a tag or linker.
UniProt P51685: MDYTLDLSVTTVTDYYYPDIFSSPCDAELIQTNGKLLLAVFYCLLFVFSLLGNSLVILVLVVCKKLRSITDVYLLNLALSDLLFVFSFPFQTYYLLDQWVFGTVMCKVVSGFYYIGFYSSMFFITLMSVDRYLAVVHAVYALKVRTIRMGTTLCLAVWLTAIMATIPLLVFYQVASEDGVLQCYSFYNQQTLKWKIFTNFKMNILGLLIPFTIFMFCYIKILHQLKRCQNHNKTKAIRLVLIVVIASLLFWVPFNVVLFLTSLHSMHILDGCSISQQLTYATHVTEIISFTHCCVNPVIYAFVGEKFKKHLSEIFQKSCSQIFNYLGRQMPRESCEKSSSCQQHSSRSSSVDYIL
human CXCR4, N-terminally FLAG-tagged (P61073, form named): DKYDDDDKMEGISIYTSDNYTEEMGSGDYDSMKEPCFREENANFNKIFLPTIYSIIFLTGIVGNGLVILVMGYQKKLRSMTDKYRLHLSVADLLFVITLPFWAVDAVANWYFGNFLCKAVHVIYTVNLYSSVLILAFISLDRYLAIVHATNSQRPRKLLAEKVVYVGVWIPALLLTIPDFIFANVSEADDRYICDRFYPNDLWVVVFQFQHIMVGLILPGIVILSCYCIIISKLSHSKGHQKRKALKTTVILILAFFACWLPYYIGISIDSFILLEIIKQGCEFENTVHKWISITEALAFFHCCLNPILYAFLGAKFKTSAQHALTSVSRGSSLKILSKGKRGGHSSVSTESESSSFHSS

What was measured:
[1] = target: human CCR8, N-terminally FLAG-tagged (human) (UniProt P51685); test: flow cytometry on transfected HEK293 cells, 5 µg/ml
[2] = target: human CCR8, N-terminally FLAG-tagged (human) (UniProt P51685); test: flow cytometry on transfected HEK293 cells
[3] = target: T1, human CCR4, N-terminally FLAG-tagged (human) (UniProt P51679); test: flow cytometry, HEK293 cells transiently transfected with the N-terminally FLAG-tagged receptor, antibody at 5 ug/ml, AF647 secondary antibody
T1 sequence: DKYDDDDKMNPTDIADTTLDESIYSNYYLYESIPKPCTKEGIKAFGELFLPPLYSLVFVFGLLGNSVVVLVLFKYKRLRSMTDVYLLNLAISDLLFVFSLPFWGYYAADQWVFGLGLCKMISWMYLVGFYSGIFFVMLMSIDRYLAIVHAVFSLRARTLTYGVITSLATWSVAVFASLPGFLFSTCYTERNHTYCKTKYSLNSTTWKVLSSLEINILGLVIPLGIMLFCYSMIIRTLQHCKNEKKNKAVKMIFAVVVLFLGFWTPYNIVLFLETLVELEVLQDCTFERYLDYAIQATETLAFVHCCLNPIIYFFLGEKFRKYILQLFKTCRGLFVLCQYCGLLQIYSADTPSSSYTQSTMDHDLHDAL

[4] = target: human CCR8, N-terminally FLAG-tagged (human) (UniProt P51685); test: as above
[5] = target: T2, human ACKR2, N-terminally FLAG-tagged (human) (UniProt O00590); test: as above
T2 sequence: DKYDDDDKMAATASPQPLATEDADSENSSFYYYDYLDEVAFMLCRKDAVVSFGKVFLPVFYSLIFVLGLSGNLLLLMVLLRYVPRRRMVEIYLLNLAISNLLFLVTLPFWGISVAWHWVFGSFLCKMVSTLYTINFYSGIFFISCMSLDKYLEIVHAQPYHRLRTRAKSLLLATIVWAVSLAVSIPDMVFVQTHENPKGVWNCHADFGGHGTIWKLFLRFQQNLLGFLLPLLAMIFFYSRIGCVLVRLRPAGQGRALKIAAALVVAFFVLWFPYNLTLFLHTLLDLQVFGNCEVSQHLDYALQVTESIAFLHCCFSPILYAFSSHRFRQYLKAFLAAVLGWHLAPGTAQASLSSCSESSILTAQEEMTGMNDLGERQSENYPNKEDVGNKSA

[6] = target: T3, human CCR3, N-terminally FLAG-tagged (human) (UniProt P51677); test: as above
T3 sequence: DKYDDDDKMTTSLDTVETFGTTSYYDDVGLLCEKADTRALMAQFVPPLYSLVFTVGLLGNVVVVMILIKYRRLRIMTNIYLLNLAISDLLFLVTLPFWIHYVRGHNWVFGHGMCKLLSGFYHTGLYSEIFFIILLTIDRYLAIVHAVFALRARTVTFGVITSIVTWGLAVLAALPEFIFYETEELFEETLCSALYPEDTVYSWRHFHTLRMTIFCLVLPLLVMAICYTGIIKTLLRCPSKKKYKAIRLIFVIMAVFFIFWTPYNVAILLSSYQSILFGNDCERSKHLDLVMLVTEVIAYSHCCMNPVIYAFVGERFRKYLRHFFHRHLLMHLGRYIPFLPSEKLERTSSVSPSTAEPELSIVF

[7] = target: T4, human ACKR4, N-terminally FLAG-tagged (human) (UniProt Q9NPB9); test: as above
T4 sequence: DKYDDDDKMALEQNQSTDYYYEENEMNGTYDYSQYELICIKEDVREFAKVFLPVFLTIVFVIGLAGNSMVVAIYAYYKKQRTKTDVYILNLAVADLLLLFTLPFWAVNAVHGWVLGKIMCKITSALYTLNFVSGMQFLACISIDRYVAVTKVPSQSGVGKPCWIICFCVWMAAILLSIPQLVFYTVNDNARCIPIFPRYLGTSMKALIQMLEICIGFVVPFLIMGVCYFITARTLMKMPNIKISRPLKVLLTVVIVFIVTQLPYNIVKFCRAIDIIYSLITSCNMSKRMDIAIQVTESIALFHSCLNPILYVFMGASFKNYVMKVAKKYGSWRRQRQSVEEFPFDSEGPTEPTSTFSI

[8] = target: human CCR5, N-terminally FLAG-tagged (human) (UniProt P51681); test: as above
[9] = target: human CXCR4, N-terminally FLAG-tagged (human) (UniProt P61073); test: as above

binding [1]: binds
binding [2]: binds
B1: hu.Ab5.H1L1 (antibody, human IgG1, V domains shown)
VH: EQQLLESGGGLVQPGGSLRLSCAVSGIDLSTYAMGWVRQAPGKGLEWIGLIHRSGRTYYATWAKGRFTISKDSSKTTVYLQMNSLRAEDTAVYFCTRSYPDYSATASIWGPGTTVTVSS
VL: DIQVTQSPSSLSASVGDRVTITCQASENIANALAWYQQKPGKPPKFLIYGASNLASGVPSRFSGSGSGTDFTFTISSLQPEDIATYYCQQAYYGNSFVEGTFGGGTKVEIK

binding [3]: binds
binding [4]: binds
binding [5]: binds
binding [6]: binds
binding [7]: binds
binding [8]: binds
binding [9]: binds
B2: hu.Ab3.H1L1 (antibody, human IgG1, kappa, V domains shown)
VH: EQQLVESGGGLVQPGGSLRLSCAVSGFSLSSYAMSWVRQAPGKGLEWIGVISASGRIIYATWAKGRFTISKDSAKTSVYLQMNSLRDEDTAVYFCARGVPSYSLVMSDWGPGTTVTVSS
VL: EPVMTQSPATLSVSPGERATLSCQASQSISNALAWYQQKPGQPPRLLIYEVSKVASGVPARFSGSGSGTEFTLTISSLQSEDFAVYYCQSAYYGNSYVWGAFGQGTKVEIKR

binding [1]: binds
binding [2]: binds
B3: hu.Ab4.H1L1 (antibody, human IgG1, V domains shown)
VH: EQQLLESGGGLVQPGGSLRLSCAVSGFSLSNYAMIWVRQAPGKGLEWVGTISLGGYTYYANWAKGRFTISKDSSKTTVYLQMNSLRAEDTAVYFCARARWSTDSAIYTYAFDPWGPGTLVTVSS
VL: DYQMTQSPSSLSASVGDRVTITCQASQSISSYLSWYQQKPGKRPKLLIYKASTLASGVPSRFSGSGSGTDFTLTISSLQPEDFATYYCQQGYTSSNIDNIFGGGTKVEIK
